Results: doi:10.1101/487009
Like-named read-outs stand apart in the source and are kept apart here. Results are given in words; binding and its absence hold for the method and conditions named. Binding seen in cells or lysates may run through a third protein. These calls come from enrichment with a bait or labelling near it, and not all partners need be listed. Where a sequence is shown, tags or fusion partners need not be part of it.

Sequences of proteins named here, by UniProt entry; tags and fusion partners are left off.
UniProt Q9AUE0: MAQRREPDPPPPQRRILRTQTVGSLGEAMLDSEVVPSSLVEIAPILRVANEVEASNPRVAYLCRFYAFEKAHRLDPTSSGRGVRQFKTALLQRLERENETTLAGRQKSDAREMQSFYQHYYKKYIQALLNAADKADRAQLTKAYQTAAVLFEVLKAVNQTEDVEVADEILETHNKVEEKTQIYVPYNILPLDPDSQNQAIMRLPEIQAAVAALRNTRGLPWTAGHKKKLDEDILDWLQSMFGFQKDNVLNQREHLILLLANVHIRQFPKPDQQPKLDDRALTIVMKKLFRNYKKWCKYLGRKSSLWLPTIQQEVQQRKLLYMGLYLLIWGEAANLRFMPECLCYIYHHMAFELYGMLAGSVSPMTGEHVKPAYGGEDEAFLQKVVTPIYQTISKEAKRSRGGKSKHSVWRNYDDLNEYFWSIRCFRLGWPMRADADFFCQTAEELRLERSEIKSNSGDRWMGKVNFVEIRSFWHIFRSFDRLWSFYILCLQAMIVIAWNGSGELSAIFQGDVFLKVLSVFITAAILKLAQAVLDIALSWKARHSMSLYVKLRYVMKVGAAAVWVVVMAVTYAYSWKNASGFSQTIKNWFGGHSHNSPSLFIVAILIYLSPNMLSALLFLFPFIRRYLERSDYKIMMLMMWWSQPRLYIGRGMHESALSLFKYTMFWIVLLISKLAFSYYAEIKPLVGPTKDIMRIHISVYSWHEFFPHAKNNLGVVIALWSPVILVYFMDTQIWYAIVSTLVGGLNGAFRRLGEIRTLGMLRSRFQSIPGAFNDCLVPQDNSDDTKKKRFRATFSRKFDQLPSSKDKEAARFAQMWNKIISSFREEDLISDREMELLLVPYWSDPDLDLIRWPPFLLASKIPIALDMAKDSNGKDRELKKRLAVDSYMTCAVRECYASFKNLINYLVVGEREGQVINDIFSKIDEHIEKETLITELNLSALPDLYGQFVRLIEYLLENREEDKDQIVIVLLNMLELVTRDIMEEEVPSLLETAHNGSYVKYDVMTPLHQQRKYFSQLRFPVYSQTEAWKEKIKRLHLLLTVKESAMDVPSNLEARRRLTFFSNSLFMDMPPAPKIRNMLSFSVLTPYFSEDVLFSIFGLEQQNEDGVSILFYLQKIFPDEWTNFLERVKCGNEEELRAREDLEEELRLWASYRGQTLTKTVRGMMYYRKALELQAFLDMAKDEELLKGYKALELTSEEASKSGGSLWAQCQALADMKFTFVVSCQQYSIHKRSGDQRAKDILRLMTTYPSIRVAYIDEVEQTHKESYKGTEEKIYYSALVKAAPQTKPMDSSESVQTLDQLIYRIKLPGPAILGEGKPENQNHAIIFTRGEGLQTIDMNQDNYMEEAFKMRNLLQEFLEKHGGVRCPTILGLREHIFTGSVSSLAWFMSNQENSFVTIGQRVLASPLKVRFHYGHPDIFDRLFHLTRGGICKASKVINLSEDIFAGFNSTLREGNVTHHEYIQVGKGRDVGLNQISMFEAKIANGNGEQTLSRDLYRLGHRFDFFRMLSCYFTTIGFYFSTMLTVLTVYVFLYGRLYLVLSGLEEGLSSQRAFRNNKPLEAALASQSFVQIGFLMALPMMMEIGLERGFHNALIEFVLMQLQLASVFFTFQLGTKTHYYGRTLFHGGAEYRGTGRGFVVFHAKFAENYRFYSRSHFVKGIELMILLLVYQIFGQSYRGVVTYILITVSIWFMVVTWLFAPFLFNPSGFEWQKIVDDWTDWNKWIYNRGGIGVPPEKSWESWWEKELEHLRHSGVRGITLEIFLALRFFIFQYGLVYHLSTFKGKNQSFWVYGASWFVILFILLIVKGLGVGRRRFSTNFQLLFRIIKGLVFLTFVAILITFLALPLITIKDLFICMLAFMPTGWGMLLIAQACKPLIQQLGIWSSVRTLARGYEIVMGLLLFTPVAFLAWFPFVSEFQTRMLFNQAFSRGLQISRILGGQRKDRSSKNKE
UniProt Q9ZT82: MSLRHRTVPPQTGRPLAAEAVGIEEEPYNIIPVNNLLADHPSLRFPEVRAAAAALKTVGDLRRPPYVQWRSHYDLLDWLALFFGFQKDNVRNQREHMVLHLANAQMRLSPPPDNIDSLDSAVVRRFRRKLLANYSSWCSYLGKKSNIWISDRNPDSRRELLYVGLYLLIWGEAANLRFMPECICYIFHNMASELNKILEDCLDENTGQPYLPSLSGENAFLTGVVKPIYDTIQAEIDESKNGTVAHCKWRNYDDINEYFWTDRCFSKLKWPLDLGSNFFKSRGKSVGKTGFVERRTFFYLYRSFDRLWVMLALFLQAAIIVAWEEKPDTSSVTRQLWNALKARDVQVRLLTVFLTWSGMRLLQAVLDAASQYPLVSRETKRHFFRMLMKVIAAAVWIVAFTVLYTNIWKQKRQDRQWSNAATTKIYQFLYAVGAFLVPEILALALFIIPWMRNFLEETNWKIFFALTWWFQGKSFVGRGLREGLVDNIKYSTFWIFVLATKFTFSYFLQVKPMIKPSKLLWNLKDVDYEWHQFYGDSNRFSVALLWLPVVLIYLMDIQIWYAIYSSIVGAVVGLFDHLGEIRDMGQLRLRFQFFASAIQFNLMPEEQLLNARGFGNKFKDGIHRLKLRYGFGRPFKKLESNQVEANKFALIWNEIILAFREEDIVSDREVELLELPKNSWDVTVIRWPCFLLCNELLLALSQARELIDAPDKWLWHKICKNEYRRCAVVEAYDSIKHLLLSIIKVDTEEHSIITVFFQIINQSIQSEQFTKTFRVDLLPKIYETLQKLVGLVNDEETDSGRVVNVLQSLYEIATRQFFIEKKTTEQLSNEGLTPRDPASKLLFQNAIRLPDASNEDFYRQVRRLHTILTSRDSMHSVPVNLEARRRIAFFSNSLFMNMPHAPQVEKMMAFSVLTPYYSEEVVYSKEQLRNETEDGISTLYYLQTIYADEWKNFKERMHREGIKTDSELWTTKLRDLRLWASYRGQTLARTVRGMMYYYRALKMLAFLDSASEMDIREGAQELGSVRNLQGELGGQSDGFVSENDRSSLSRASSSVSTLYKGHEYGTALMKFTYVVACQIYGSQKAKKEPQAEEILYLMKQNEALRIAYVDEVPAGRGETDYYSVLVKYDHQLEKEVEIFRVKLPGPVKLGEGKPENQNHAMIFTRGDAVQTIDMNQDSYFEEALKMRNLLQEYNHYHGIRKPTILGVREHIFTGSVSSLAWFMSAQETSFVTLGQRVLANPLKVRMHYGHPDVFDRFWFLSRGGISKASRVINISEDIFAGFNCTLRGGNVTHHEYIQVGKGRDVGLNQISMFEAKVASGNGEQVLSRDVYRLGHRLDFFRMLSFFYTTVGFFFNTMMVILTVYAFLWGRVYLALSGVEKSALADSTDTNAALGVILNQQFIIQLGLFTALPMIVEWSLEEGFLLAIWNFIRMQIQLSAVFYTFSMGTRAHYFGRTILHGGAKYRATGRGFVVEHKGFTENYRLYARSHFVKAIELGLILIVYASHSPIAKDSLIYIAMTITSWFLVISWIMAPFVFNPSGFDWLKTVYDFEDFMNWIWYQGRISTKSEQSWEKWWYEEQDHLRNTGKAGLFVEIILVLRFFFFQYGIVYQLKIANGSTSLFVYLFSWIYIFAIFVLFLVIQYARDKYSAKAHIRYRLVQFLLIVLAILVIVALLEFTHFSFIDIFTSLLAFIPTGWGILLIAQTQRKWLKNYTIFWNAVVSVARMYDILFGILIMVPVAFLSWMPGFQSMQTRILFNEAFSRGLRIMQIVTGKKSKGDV

Experiments:
[1] = molecular target: T1, CRK2–YFP (Arabidopsis thaliana) (UniProt Q9CAL3); test: affinity purification with mass spectrometry
T1 sequence: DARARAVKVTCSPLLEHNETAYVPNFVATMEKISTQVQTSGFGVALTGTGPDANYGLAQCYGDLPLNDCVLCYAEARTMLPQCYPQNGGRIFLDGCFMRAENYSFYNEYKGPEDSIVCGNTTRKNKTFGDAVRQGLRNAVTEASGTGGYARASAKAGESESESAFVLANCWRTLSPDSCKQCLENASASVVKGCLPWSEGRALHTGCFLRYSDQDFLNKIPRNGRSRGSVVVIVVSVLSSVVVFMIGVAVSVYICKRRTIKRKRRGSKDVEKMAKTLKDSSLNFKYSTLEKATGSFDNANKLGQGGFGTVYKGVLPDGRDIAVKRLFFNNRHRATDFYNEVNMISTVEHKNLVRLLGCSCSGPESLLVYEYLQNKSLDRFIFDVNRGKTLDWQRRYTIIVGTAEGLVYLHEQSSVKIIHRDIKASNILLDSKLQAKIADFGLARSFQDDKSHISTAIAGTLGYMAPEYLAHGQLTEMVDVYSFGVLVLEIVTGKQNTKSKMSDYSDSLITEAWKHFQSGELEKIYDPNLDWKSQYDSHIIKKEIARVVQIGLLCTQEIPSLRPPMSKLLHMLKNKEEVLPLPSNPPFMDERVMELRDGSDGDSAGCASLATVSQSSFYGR

[2] = molecular target: T1, CRK2–YFP (Arabidopsis thaliana); test: affinity purification with mass spectrometry; remark: listed apart in the source

Molecule | binding [1] | binding [2]
CALLOSE SYNTHASE 1 (from UniProt Q9AUE0 1-1950) (enzyme) | binds | –
CALS12 (from UniProt Q9ZT82 1-1780) (enzyme) | binds | –
PHOSPHOLIPASE D ALPHA 1 (enzyme, UniProt Q38882 1-810) MAQHLLHGTLHATIYEVDALHGGGVRQGFLGKILANVEETIGVGKGETQLYATIDLQKARVGRTRKIKNEPKNPKWYESFHIYCAHLASDIIFTVKDDNPIGATLIGRAYIPVDQVINGEEVDQWVEILDNDRNPIQGGSKIHVKLQYFHVEEDRNWNMGIKSAKFPGVPYTFFSQRQGCKVSLYQDAHIPDNFVPRIPLAGGKNYEPQRCWEDIFDAISNAKHLIYITGWSVYAEIALVRDSRRPKPGGDVTIGELLKKKASEGVRVLLLVWDDRTSVDVLKKDGLMATHDEETENFFRGSDVHCILCPRNPDDGGSIVQSLQISTMFTHHQKIVVVDSEMPSRGGSEMRRIVSFVGGIDLCDGRYDTPFHSLFRTLDTVHHDDFHQPNFTGAAITKGGPREPWHDIHSRLEGPIAWDVMYNFEQRWSKQGGKDILVKLRDLSDIIITPSPVMFQEDHDVWNVQLFRSIDGGAAAGFPESPEAAAEAGLVSGKDNIIDRSIQDAYIHAIRRAKDFIYVENQYFLGSSFAWAADGITPEDINALHLIPKELSLKIVSKIEKGEKFRVYVVVPMWPEGLPESGSVQAILDWQRRTMEMMYKDVIQALRAQGLEEDPRNYLTFFCLGNREVKKDGEYEPAEKPDPDTDYMRAQEARRFMIYVHTKMMIVDDEYIIIGSANINQRSMDGARDSEIAMGGYQPHHLSHRQPARGQIHGFRMSLWYEHLGMLDETFLDPSSLECIEKVNRISDKYWDFYSSESLEHDLPGHLLRYPIGVASEGDITELPGFEFFPDTKARILGTKSDYLPPILTT | – | binds
